# Literature values in patent publication US7560106B2, “Rationally designed heparinases derived from heparinase I and II and methods of sequencing therewith” (Massachusetts Institute of Technology, priority 1998, dated 2009).
# Some results were stated once for a whole list of compounds, not compound by compound.
# Details: NaCl; literature; cited from earlier work
row,Substance,"salt concentration of elution, other heparin-binding proteins"
1,fibroblast growth factor,0.9 to 1.5 M
2,lipoprotein lipase,0.9 to 1.5 M
